Laboratory results: PubChem BioAssay AID743454 (Peter MacCallum Cancer Centre, 2014)
Purpose: 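Knock-downs lowering viability or raising caspase 3/7 activity in vorinostat-treated resistant cells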 (primary screen). System: human HCT116-VR colon cancer cells, selected for vorinostat resistance. Reagents: siRNA pool against human genes, 40 nM siRNA pool. Timing: vorinostat for 24 h, read-out about 72 h after transfection. Challenge: vorinostat at 2.5 µM final. Read-out: 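Cell viability by CellTiter-Fluor and caspase 3/7 activity by luminescence, each scaled to mock wells per plate, duplicates averaged, then robust z-scored over all plates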. Scale: viability robust z-score: higher = more viable cells than screen typical; caspase robust z-score: higher = more caspase 3/7 activity than screen typical. Rule for the call: 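a knock-down is a hit when classed RV1 or RV2 for lowered viability, or CA1 or CA2 for caspase activation; those lethal without drug were dropped; hits were retested singly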.
Here is one part, drawn at random, of about 18,000 deposited reagents. 450 of all reagents (2.5%) count as active. 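Single biological run; no consistent viability z cut-off exists, so the class columns, not z-scores, define the calls.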

For KRT81 (keratin 81), what does the deposit list?
viability hit class: no change; caspase hit class: no change; viability robust z-score: -2.27; caspase robust z-score: 4.83; outcome: inactive

For IHH (Indian hedgehog signaling molecule), how do the results read?
viability hit class: no change; caspase hit class: no change; viability robust z-score: 0.96; caspase robust z-score: -0.68; outcome: inactive

How did the screen score POTEB3 (POTE ankyrin domain family member B3)?
viability hit class: no change; caspase hit class: no change; viability robust z-score: 0.58; caspase robust z-score: -0.75; outcome: inactive

What did the screen give for MTMR10 (myotubularin related protein 10)?
viability hit class: no change; caspase hit class: no change; viability robust z-score: 0.74; caspase robust z-score: -0.95; outcome: inactive

For DCHS1 (dachsous cadherin-related 1), how do the results read?
viability hit class: no change; caspase hit class: no change; viability robust z-score: -1.04; caspase robust z-score: 1.53; outcome: inactive

A few values from the entries so far:
Result for MTMR10 (myotubularin related protein 10) in “caspase robust z-score”: -0.95
For “caspase robust z-score”, DCHS1 (dachsous cadherin-related 1) shows 1.53

Continued.
Which result is listed for GABPB2 (GA binding protein transcription factor subunit beta 2)?
viability hit class: no change; caspase hit class: no change; viability robust z-score: -0.42; caspase robust z-score: 0.38; outcome: inactive

Which result is listed for HPCAL1 (hippocalcin like 1)?
viability hit class: no change; caspase hit class: CA1 (caspase activation); viability robust z-score: -0.03; caspase robust z-score: 5.54; outcome: active

What did the screen give for MIEF1 (mitochondrial elongation factor 1)?
viability hit class: no change; caspase hit class: no change; viability robust z-score: -0.71; caspase robust z-score: 0.08; outcome: inactive

How did the screen score KCNF1?
viability hit class: no change; caspase hit class: no change; viability robust z-score: -1.44; caspase robust z-score: 2.17; outcome: inactive

For LARP6 (La ribonucleoprotein 6, translational regulator), what was measured?
viability hit class: no change; caspase hit class: no change; viability robust z-score: 0.08; caspase robust z-score: 3.37; outcome: inactive

For AFAP1 (actin filament associated protein 1), what does the deposit list?
viability hit class: no change; caspase hit class: no change; viability robust z-score: -0.06; caspase robust z-score: -0.91; outcome: inactive

With TMEM164 (transmembrane protein 164), what does the deposit list?
viability hit class: no change; caspase hit class: no change; viability robust z-score: -1.23; caspase robust z-score: 4.1; outcome: inactive

How did the screen score OR10R2 (olfactory receptor family 10 subfamily R member 2)?
viability hit class: no change; caspase hit class: no change; viability robust z-score: 0.18; caspase robust z-score: -0.68; outcome: inactive

What is on record for LZTR1 (leucine zipper like post translational regulator 1)?
viability hit class: no change; caspase hit class: no change; viability robust z-score: -1.54; caspase robust z-score: 1.2; outcome: inactive
